In the SangsterLogP compilation:

logP: 2.49
SMILES: O=C(Nc1ccccc1)c1ccccc1
